# Experimental data: PubChem BioAssay AID1671195 (Yale University, 2021)
# Aim: 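Genes whose knockdown alters LDL uptake in liver cancer cells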 (primary screen)
# System: human Huh7 hepatoma cells
# Reagents: siRNA pool against human genes, 18 nM
# Duration: about 2 to 2.5 days of knockdown, then 8 h LDL uptake
# Treatment: DiI-labelled LDL at 30 µg/ml for 8 h, in lipoprotein-deficient serum medium
# Measured: 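Per-cell DiI-LDL intensity by automated imaging; well means scaled to the plate median and given as a robust z-score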
# Scale: robust z-score: higher = more LDL uptake after knockdown
# Call rule: 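a gene counts as active if at least two replicate z-scores exceed ±2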
# The deposit covers about 22,000 reagents; this is a random part of them. Of all reagents, about 1,510 (6.9%) got an active call. 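Active includes knockdowns raising or lowering LDL uptake; positive z-scores mean more uptake, negative mean less.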 Entries without a mark were called inactive.
Target gene,"robust z-score, replicate 1","robust z-score, replicate 2","robust z-score, replicate 3"
EPB41L4A,-0.167,-0.566,-0.585
IL13RA2,0.393,-0.196,0.17
ISCA2,-0.733,-0.953,-0.646
ARFRP1,-0.635,2.32,0.472
TRIM41,-0.113,-0.932,-0.17
EIF4A1P7,1.01,0.978,0.982
SCRIB,-0.353,-0.896,0.448
SETP20,0.638,0.481,0.429
METTL22,1.34,0.47,0.618
FAM3D,0.163,0.101,0.426
KCNB2,0.977,1,0.974
CHPF,-2.47 (active),-2.68,-2.83
CYB5D1,0.735,-0.335,-0.305
RAB44,-0.851,-1.26,-1.21
IGF2BP3,0.968,0.436,0.267
FNTAP1,-0.499,-0.516,-0.425
CHCT1,1.12,0.587,-0.262
CENPI,1.13,-0.51,0.435
IHH,0.362,1.3,0.404
COL8A2,2.42 (active),3.71,3.02
MRPS10,-0.0227,-1.36,-1.42
PDRG1,0.35,0.936,0.742
ANAPC15,1.95 (active),3.51,1.51
LYRM4,0.0886,-0.372,-0.862
ZP4,-1.25,-0.878,-0.786
SRRM4,0.945,0.749,0.533
FLNC,-0.796,-0.702,-0.989
TLDC2,1.36,1.84,0.708
